Test results reported in patent US9668986B2, “Ophthalmic, intra-articular or intravesical preparations containing N-acyl-ethanolamines” (EPITECH GROUP S.R.I., priority 2014, dated 2017).
At least one structure is not confirmed: it was looked up by name or label, or the drawing left a doubt. Some entries share one result that the patent states for a list of compounds.

Columns and labels:
[1] = Solubilization of NAE by methyl-beta-cyclodextrin (MβCD) in water; settings: minimum amount of cyclodextrin
[2] = Storage stability (precipitate formation) of NAE solutions in MβCD; settings: for MβCD/NAE weight ratio giving stable solutions: excess of cyclodextrin, no polymeric emulsifier; for MβCD/NAE weight ratio giving stable solutions with polymeric emulsifier: polymeric emulsifier present

| SMILES | minimum MβCD/NAE weight ratio to obtain the solubilization of the NAE [1] | MβCD/NAE weight ratio giving stable solutions [2] | MβCD/NAE weight ratio giving stable solutions with polymeric emulsifier [2] |
| --- | --- | --- | --- |
| CCC=CCC=CCC=CCC=CCC=CCC=CCCC(=O)NCCO [DHAEA, N-docoesaenoylethanolamine] | ≥ 220:1 | ≥ 260:1 | ≥ 210:1 |
| CCC=CCC=CCC=CCC=CCC=CCCCC(=O)NCCO [EPAEA, N-eicosapentaenoylethanolamine] | ≥ 100:1 | ≥ 160:1 | ≥ 120:1 |
